# Test results reported in the supplement of paper PMC12819154, “High-throughput peptide-centric local stability assay extends protein–ligand identification to membrane proteins, tissues and bacteria” (Nature Structural & Molecular Biology, 2025).
# The chains behind the UniProt entries cited, without tags or fusion partners. Where a name states a change or a piece, a line headed by the entry shows the natural chain unless it says otherwise.
# UniProt Q80UP8: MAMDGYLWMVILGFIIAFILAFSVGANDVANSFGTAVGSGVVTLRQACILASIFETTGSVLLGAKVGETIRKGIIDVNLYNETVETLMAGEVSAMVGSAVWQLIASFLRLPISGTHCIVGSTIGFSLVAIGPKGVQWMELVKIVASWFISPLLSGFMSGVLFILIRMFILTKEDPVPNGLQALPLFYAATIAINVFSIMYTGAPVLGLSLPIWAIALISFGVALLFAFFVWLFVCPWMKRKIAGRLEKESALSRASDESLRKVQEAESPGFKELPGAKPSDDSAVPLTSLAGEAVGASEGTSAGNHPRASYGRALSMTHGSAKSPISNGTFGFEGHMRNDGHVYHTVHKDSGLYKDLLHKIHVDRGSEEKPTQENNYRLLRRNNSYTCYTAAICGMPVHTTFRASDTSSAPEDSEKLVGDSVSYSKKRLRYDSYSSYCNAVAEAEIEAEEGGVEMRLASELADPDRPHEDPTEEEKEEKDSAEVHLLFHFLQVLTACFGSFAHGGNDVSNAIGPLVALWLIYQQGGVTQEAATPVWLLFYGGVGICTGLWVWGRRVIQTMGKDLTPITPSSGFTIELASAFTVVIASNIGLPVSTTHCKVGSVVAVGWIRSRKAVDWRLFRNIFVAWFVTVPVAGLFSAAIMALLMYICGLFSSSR
# UniProt Q8BFR4: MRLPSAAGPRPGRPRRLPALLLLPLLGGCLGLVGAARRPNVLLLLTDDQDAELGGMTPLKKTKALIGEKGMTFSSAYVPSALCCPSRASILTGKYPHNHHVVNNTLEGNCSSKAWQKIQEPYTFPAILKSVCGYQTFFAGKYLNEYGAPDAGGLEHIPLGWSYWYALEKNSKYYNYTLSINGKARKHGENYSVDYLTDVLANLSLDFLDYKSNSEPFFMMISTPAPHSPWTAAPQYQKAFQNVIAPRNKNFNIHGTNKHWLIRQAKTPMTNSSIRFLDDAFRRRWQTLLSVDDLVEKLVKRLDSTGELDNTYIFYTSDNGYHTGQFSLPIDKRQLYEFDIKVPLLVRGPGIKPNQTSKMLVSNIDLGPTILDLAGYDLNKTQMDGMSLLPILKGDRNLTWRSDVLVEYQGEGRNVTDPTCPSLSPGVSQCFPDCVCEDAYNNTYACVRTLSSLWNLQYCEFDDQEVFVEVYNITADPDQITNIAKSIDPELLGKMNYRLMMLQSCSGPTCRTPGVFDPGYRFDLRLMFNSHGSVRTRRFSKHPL
# UniProt Q8BFZ9: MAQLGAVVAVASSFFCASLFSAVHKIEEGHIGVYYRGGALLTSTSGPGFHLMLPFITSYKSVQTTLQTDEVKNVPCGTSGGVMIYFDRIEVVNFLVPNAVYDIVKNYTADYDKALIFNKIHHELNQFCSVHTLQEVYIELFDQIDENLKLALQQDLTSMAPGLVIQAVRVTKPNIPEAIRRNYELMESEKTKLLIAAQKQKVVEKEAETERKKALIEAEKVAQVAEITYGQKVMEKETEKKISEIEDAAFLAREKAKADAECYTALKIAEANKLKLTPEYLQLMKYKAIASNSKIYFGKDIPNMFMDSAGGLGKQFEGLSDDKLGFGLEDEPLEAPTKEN
# UniProt Q8BFW7: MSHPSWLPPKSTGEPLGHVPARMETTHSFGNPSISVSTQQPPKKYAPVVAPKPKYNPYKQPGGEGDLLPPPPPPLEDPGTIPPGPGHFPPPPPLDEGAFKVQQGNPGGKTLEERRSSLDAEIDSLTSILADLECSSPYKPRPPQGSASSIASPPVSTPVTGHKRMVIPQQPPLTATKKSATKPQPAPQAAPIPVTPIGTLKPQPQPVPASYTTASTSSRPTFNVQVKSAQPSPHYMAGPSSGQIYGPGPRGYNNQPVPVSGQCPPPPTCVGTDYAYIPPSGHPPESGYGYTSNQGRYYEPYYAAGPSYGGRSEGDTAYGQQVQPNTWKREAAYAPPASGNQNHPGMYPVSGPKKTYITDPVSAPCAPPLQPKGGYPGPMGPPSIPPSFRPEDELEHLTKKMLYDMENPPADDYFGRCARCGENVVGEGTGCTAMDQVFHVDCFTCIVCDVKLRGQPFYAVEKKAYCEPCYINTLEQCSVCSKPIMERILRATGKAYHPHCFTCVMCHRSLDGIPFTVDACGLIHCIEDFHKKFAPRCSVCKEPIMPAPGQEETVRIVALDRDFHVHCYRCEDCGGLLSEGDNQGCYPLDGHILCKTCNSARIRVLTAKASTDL
# UniProt Q80X19: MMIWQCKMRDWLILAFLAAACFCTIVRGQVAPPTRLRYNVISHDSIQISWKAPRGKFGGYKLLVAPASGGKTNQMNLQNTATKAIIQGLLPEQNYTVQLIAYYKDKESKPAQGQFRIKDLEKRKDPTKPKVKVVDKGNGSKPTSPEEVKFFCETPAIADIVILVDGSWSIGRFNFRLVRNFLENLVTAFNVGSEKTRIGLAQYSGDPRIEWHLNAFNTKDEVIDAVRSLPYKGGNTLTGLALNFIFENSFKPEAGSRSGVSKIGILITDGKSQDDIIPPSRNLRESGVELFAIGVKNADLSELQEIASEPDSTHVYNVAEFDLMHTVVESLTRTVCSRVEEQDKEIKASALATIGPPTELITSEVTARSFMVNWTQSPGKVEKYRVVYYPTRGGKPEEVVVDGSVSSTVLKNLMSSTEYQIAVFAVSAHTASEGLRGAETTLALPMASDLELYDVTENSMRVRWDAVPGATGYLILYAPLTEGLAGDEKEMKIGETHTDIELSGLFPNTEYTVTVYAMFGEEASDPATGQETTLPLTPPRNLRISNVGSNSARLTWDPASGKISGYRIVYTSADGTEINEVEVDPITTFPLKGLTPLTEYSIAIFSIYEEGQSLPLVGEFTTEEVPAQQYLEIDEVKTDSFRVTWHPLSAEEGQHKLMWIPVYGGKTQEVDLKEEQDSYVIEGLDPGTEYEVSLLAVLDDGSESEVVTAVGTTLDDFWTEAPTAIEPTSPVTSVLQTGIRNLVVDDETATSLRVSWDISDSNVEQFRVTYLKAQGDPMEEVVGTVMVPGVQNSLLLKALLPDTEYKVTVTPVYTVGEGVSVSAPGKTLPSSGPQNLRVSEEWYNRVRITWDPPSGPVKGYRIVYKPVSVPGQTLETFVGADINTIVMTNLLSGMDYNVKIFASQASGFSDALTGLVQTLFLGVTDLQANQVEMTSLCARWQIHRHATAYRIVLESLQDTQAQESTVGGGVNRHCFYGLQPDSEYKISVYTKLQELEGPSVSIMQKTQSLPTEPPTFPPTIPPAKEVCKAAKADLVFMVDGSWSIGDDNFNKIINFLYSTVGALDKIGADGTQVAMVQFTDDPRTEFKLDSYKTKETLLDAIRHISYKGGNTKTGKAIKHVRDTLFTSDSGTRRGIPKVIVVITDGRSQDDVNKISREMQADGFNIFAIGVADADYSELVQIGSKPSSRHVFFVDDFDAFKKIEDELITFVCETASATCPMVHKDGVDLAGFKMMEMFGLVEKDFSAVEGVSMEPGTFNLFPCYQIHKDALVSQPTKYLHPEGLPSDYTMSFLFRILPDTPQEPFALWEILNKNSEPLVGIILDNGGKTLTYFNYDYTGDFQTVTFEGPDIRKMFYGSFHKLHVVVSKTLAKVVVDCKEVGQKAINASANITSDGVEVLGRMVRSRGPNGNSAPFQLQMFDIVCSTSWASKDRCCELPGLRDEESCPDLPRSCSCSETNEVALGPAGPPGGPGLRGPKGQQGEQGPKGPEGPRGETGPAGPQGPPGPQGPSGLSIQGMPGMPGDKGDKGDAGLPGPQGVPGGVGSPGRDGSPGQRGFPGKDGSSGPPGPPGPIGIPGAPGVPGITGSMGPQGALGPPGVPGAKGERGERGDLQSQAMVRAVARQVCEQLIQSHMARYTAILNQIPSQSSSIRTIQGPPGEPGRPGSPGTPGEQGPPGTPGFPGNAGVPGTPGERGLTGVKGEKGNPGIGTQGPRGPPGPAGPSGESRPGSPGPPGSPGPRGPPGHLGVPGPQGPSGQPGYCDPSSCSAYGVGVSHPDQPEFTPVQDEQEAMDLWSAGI
# UniProt Q80T85, whole entry: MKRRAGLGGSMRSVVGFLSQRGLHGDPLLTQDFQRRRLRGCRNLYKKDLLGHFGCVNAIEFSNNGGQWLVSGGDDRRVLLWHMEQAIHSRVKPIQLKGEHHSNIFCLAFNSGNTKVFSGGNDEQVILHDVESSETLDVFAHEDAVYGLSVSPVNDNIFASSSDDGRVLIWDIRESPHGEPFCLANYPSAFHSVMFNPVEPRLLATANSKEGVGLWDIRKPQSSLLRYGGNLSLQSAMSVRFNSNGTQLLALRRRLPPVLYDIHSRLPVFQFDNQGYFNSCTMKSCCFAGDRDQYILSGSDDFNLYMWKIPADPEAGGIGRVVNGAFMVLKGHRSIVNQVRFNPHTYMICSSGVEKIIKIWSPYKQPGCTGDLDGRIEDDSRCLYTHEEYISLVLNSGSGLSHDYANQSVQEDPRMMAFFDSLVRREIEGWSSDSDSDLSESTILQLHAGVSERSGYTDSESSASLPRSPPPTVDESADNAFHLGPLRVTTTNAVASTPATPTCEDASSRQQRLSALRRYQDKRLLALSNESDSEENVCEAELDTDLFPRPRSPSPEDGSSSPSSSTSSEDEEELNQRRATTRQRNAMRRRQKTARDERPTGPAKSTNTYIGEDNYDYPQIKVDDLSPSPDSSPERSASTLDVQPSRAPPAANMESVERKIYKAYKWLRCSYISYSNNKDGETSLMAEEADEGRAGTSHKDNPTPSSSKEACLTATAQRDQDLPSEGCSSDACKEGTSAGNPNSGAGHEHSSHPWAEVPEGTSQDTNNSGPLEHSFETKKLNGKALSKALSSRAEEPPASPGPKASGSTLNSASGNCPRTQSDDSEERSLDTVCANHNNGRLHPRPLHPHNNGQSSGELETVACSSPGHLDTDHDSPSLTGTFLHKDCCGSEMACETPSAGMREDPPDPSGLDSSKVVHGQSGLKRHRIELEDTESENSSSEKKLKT
# UniProt Q8BGF9: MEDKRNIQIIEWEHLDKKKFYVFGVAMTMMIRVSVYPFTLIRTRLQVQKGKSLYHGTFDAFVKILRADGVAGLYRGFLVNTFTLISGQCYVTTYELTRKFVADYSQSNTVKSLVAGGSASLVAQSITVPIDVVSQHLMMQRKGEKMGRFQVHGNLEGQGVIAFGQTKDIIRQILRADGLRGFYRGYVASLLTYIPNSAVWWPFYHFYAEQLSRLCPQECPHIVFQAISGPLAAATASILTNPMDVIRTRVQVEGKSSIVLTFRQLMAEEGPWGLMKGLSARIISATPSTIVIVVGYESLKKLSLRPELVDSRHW
# UniProt Q7TSG2: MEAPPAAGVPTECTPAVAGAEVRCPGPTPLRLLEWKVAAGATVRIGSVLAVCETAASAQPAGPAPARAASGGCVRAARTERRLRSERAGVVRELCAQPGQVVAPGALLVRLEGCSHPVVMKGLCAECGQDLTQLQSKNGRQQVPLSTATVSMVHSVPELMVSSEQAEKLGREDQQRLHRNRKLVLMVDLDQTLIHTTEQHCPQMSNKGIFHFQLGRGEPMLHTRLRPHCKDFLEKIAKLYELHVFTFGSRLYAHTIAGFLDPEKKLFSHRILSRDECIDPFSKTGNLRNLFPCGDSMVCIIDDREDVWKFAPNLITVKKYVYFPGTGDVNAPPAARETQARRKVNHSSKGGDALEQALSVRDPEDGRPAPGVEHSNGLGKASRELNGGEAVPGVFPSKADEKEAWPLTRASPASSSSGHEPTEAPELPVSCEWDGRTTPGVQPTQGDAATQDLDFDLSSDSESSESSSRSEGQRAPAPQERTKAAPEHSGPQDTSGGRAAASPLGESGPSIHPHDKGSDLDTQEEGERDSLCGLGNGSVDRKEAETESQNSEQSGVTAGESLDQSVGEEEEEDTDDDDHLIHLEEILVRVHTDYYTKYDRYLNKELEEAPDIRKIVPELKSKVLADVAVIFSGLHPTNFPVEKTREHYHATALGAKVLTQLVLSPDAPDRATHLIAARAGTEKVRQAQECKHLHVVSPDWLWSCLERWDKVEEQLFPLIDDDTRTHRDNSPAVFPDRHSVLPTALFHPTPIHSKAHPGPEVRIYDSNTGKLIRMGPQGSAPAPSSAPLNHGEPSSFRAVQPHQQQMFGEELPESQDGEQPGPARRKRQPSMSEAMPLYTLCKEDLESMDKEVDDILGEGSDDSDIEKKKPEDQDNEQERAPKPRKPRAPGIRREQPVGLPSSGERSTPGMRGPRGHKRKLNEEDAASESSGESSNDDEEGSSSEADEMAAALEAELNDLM
# UniProt Q7TMF3, whole entry: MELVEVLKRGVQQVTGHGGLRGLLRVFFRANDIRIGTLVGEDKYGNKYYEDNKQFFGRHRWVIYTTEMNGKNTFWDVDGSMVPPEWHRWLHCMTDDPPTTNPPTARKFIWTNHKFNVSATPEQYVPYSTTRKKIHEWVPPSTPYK
# UniProt Q78IK4: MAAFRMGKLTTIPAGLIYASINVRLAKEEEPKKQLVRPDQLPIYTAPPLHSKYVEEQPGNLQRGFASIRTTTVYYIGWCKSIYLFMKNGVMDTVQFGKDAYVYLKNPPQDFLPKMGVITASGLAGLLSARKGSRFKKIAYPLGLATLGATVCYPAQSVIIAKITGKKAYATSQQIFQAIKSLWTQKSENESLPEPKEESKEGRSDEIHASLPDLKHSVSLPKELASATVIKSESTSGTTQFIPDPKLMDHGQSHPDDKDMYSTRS
# The other results are listed elsewhere or left out. Most entries show no effect beyond the scatter of the controls.
# Compound: CN[C@@H]1C[C@H]2O[C@@](C)([C@@H]1OC)n1c3ccccc3c3c4c(c5c6ccccc6n2c5c31)C(=O)NC4 [staurosporine]
# Experiment: log2 fold change of pooled soluble protein (PISA), ligand vs vehicle (log2 ratio); higher = more thermally stabilized
# Conditions: ligand concentration: 20 uM; assay format: PISA pool 52.9/55.5/58.6 C
row,Target,log2 fold change of pooled soluble protein
1,UniProt Q80WQ6,0.244
2,UniProt Q6Q899,-0.0808
3,UniProt Q6PDG5,-0.1
4,UniProt Q80X71,0.0534
5,UniProt Q80UG1,0.0644
6,UniProt Q810U5,0.000563
7,UniProt Q8BG94,-0.0223
8,UniProt Q6NZB0,-0.0732
9,UniProt Q80YR4,-0.224
10,UniProt Q80UP8,-0.172
11,UniProt Q6WVG3,0.173
12,UniProt Q80U72,-0.0216
13,UniProt Q7TT18,0.0325
14,UniProt Q6PDN3,0.199
15,UniProt Q6ZPE2,-0.00115
16,UniProt Q80X73,0.0579
17,UniProt Q80YA7,-0.102
18,UniProt Q8BFR5,-0.123
19,UniProt Q791T5,0.0698
20,UniProt Q6X893,0.0131
21,UniProt Q8BGB8,0.0127
22,UniProt Q7TSH2,0.417
23,UniProt Q7TNE3,0.147
24,UniProt Q6NXJ0,0.162

row,Target,log2 fold change of pooled soluble protein
1,UniProt Q8BFR4,-0.0913
2,UniProt Q80UY2,0.0644
3,UniProt Q6ZQ58,-0.219
4,UniProt Q7TPD2,-0.0239
5,UniProt Q811D0,-0.00921
6,UniProt Q6P6J9,-0.0976
7,UniProt Q7JJ13,-0.0508
8,UniProt Q76MZ3,0.00147
9,UniProt Q6P8M1,0.146
10,UniProt Q7TMQ7,-0.17
11,UniProt Q8BFZ9,0.179
12,UniProt Q8BFW7,-0.121
13,UniProt Q80X19,-0.0738
14,UniProt Q78JE5,0.0736
15,UniProt Q6P5F9,0.332
16,UniProt Q6PGH2,-0.0445
17,UniProt Q75N62,0.0576
18,UniProt Q6ZQB6,0.203
19,UniProt Q80WR5,-0.0148
20,UniProt Q80ZS3,0.0638
21,UniProt Q80T85,0.126
22,UniProt Q80XI3,-0.0865
23,UniProt Q7TQD2,0.0861
24,UniProt Q8BGF9,0.121

# A portion from further up, as a working copy:
row,Target,log2 fold change of pooled soluble protein
7,UniProt Q7JJ13,-0.0508
8,UniProt Q76MZ3,0.00147
9,UniProt Q6P8M1,0.146
10,UniProt Q7TMQ7,-0.17
11,UniProt Q8BFZ9,0.179
12,UniProt Q8BFW7,-0.121
13,UniProt Q80X19,-0.0738
14,UniProt Q78JE5,0.0736
15,UniProt Q6P5F9,0.332
16,UniProt Q6PGH2,-0.0445
17,UniProt Q75N62,0.0576
18,UniProt Q6ZQB6,0.203
19,UniProt Q80WR5,-0.0148

# (continued)

row,Target,log2 fold change of pooled soluble protein
1,UniProt Q7TMK6,-0.219
2,UniProt Q78IQ7,0.144
3,UniProt Q6P069,-0.0982
4,UniProt Q810A7,0.122
5,UniProt Q80Y55,-0.00829
6,UniProt Q71KT5,0.118
7,UniProt Q7TSG2,0.117
8,UniProt Q7TSC1,-0.0567
9,UniProt Q7TMW6,-0.121
10,UniProt Q8BGC3,0.143
11,UniProt Q6ZPY7,0.129
12,UniProt Q6PAJ1,-0.0936
13,UniProt Q6ZPR6,0.0952
14,UniProt Q6PFD9,-0.11
15,UniProt Q6NZN0,-0.242
16,UniProt Q80YC5,0.0796
17,UniProt Q7TMF3,0.0127
18,UniProt Q6VN19,-0.0203
19,UniProt Q6P9Q6,0.0837
20,UniProt Q8BFQ8,-0.000591
21,UniProt Q78IK4,-0.0517
22,UniProt Q6TCG2,-0.0569
23,UniProt Q6PHU5,0.266
